Results published in patent publication US10758518B2, “Compounds and compositions for treating hematological disorders” (Curis, Inc., priority 2017, dated 2020).
For at least one compound, name, drawing or mass did not settle the structure.

Tested on: SU-DHL-2 cells (MYD88-S222R)
Test: In vivo tumor growth inhibition in ABC-DLBCL tumor model (SU-DHL-2 xenograft)
Conditions: venetoclax 75 mg/kg qd po single agent
Description: Female SCID Beige mice were implanted with SU-DHL-2 cells which harbor MYD88-S222R pathway activating mutations. The mice were treated with Compound A (100 mg/kg, qd, po, suspension in 0.5% Tween 20 and 0.25% hydroxyethyl cellulose), venetoclax (75 mg/kg, qd, po, solution in 60% phosal 50PG, 30% PEG 400, and 10% ethanol) or the combination for 27 continuous days.
All in life data acquisition, including body weight, tumor length, tumor diameter, tumor ulceration, clinical signs and animal mortality was collected in Study Director. Tumor ulceration was scored on a 6 level system with severity of 4 or higher requiring attention. At the end of the study (24 hours after the last dose), all surviving animals were examined externally for possible clinical abnormalities or adverse clinical signs, weighed and tumor measurements were taken for the last time.

SMILES: CC1(C)CCC(CN2CCN(c3ccc(C(=O)NS(=O)(=O)c4ccc(NCC5CCOCC5)c([N+](=O)[O-])c4)c(Oc4cnc5[nH]ccc5c4)c3)CC2)=C(c2ccc(Cl)cc2)C1 [venetoclax, reference compound]
- effect on tumor growth (in words): No significant effect on tumor growth
